Reference: patent publication US6410558B1, “Fungicides for the control of take-all disease of plants” (Monsanto Technology LLC, priority 1991, dated 2002)
Some results were stated once for a whole list of compounds, not compound by compound.

Test system: Gg
Test: Field Tests: seed treatment of wheat and barley in previously infested fields
Assay type: in vivo, Gaeumannomyces graminis
Conditions: mixed with wheat and barley seed at 0.01 to 50 g active ingredient per kg of seed

Structure (SMILES) | incidence of Gg in previously infested fields compared to check fields seeded with untreated seed
CCCCNC(=O)c1c(Cl)cccc1[Si](C)(C)C [Example 20, N-Butyl-2-chloro-6-(trimethylsilyl)-benzamide] | reduce the incidence of Gg
CCNC(=O)c1ccncc1[Si](C)(C)C [Example 124, N-Ethyl-3-(trimethylsilyl)-4-pyridinecarboxamide] | reduce the incidence of Gg
C[Si](C)(C)c1cccc(Cl)c1C(=O)Nc1ccccc1[N+](=O)[O-] [Example 160, 2-Chloro-N-(2-nitrophenyl)-6-(trimethylsilyl)benzamide] | reduce the incidence of Gg
CCNC(=O)c1c([Si](C)(C)C)ccc(CF)c1Cl [Example 228, 2-Chloro-N-ethyl-3-(fluoromethyl)-6-(trimethylsilyl)benzamide] | reduce the incidence of Gg
COCCNC(=O)c1c(Cl)cccc1[Si](C)(C)C [Example 146, 2-Chloro-N-(2-methoxyethyl)-6-(trimethylsilyl)benzamide] | reduce the incidence of Gg
C[Si](C)(C)c1cccc(Cl)c1C(=O)NCc1ccc(C(F)(F)F)cc1 [Example 102, 2-Chloro-N-[[4-(trifluoromethyl)phenyl]-methyl]-6-(trimethylsilyl)-benzamide] | reduce the incidence of Gg
CCNC(=O)c1c(Cl)ccc([N+](=O)[O-])c1[Si](C)(C)C [Example 215, 6-Chloro-N-ethyl-3-nitro-2-(trimethylsilyl)benzamide] | reduce the incidence of Gg
CCNC(=O)c1sc(Cl)cc1[Si](C)(C)C [Example 254, 5-Chloro-N-ethyl-3-(trimethylsilyl)-2-thiophenecarboxamide] | reduce the incidence of Gg
C[Si](C)(C)c1cccc(Cl)c1C(=O)NCc1cccc([N+](=O)[O-])c1 [Example 141, 2-Chloro-N-[(3-nitrophenyl)-methyl]-6-(trimethylsilyl)-benzamide] | reduce the incidence of Gg
CCNC(=O)c1c(Cl)ccc(N)c1[Si](C)(C)C [Example 233, 3-Amino-6-chloro-N-ethyl-2-(trimethylsilyl)benzamide] | reduce the incidence of Gg
CCN(CC)C(=O)c1c(Cl)cccc1[Si](CC)(CC)CC [Example 66, N,N-Diethyl-2-chloro-6-(triethylsilyl)benzamide] | reduce the incidence of Gg
CCNC(=O)c1cc(N)ccc1[Si](C)(C)C [Example 217, 5-Amino-N-ethyl-2-(trimethylsilyl)benzamide] | reduce the incidence of Gg
CC(C)N(O)C(=O)c1c(Cl)cccc1[Si](C)(C)C [Example 167, 2-Chloro-N-hydroxy-N-(1-methylethyl)-6-(trimethylsilyl)benzamide] | reduce the incidence of Gg
CCNC(=O)c1c([Si](C)(C)C)ccc(Cl)c1F [Example 218, 3-Chloro-N-ethyl-2-fluoro-6-(trimethylsilyl)benzamide] | reduce the incidence of Gg
C[Si](C)(C)c1cccc(Cl)c1C(=O)NCC1CC1 [Example 150, 2-Chloro-N-(cyclopropylmethyl)-6-(trimethylsilyl)benzamide] | reduce the incidence of Gg
CCNC(=O)c1cc(N(C)C)ccc1[Si](C)(C)C [Example 226, 5-(Dimethylamino)-N-ethyl-2-(trimethylsilyl)benzamide] | reduce the incidence of Gg
CCNC(=O)c1c([Si](C)(C)C)ccc(S(C)(=O)=O)c1Cl [Example 238, 2-Chloro-N-ethyl-3-(methylsulfonyl)-6-(trimethylsilyl)benzamide] | reduce the incidence of Gg
CCNC(=O)c1cccc(F)c1[Si](C)(C)C [Example 12, N-Ethyl-3-fluoro-2-(trimethylsilyl)benzamide] | reduce the incidence of Gg
CCNC(=O)c1sc(Br)cc1[Si](C)(C)C [Example 266, 5-Bromo-N-ethyl-3-(trimethylsilyl)-2-thiophenecarboxamide] | reduce the incidence of Gg
CCNC(=O)c1cccc([N+](=O)[O-])c1[Si](C)(C)C [Example 246, N-Ethyl-3-nitro-2-(trimethylsilyl)benzamide] | reduce the incidence of Gg

Structure (SMILES) | incidence of Gg in previously infested fields compared to check fields seeded with untreated seed
CC[C@H](C)NC(=O)c1c(Cl)cccc1[Si](C)(C)C [Example 152, 2-Chloro-N-(1-methylpropyl)-6-(trimethylsilyl)benzamide, (s)-] | reduce the incidence of Gg
CCNC(=O)c1c(Br)ccc(OC)c1[Si](C)(C)C [Example 236, 6-Bromo-N-ethyl-3-methoxy-2-(trimethylsilyl)benzamide] | reduce the incidence of Gg
CC(C)N(O)C(=O)c1sc(Cl)cc1[Si](C)(C)C [Example 287, 5-Chloro-N-hydroxy-N-(1-methylethyl)-3-(trimethylsilyl)-2-thiophenecarboxamide] | reduce the incidence of Gg
CCNC(=O)c1oc([Si](C)(C)C)cc1[Si](C)(C)C [Example 251, N-Ethyl-3,5-bis(trimethylsilyl)-2-furancarboxamide] | reduce the incidence of Gg
CCNC(=O)c1c(Cl)cccc1[Si](C)(C)CCl [Example 83, N-Ethyl-2-chloro-6-[(chloromethyl)dimethylsilyl]benzamide] | reduce the incidence of Gg
CCNC(=O)c1c([Si](C)(C)C)ccc(C(C)=O)c1Cl [Example 243, 3-Acetyl-2-chloro-N-ethyl-6-(trimethylsilyl)benzamide] | reduce the incidence of Gg
CCNC(=O)c1c(C)cccc1N(C)C(C)(C)C [Example 191, N-Ethyl-2-[(1,1-dimethylethyl)methylamino]-6-methylbenzamide] | reduce the incidence of Gg
C[Si](C)(C)c1cccc(Cl)c1C(=O)NCc1cccs1 [Example 138, 2-Chloro-N-(2-thienylmethyl)-6-(trimethylsilyl)benzamide] | reduce the incidence of Gg
CCN(CC)C(=O)c1c(C(=O)OC)ccc(F)c1[Si](C)(C)C [Example 42, 2-[(Diethylamino)carbonyl]-4-fluoro-3-(trimethylsilyl)benzoic acid, methyl ester] | reduce the incidence of Gg
CCNC(=O)c1c([Si](C)(C)C)sc2c1CCCC2 [Example 270, N-Ethyl-2-(trimethylsilyl)-4,5,6,7-tetrahydrobenzo[B]thiophene-3-carboxamide] | reduce the incidence of Gg
C[Si](C)(C)c1cccc(Cl)c1C(=O)NCc1ccco1 [Example 32, 2-Chloro-N-(2-furylmethyl)-6-(trimethylsilyl)benzamide] | reduce the incidence of Gg
C[Si](C)(C)c1cc(Cl)sc1C(=O)NCCOS(C)(=O)=O [Example 265, 5-Chloro-N-[2[(methylsulfonyl)oxy]ethyl]-3-(trimethylsilyl)-2-thiophenecarboxamide] | reduce the incidence of Gg
COc1cccc(CNC(=O)c2c(Cl)cccc2[Si](C)(C)C)c1 [Example 139, 2-Chloro-N-[(3-methoxyphenyl)methyl]-6-(trimethylsilyl)benzamide] | reduce the incidence of Gg
CCN(COC)C(=O)c1c(Cl)cccc1[Si](C)(C)C [Example 46, 2-Chloro-N-ethyl-N-(methoxymethyl)-6-(trimethylsilyl)benzamide] | reduce the incidence of Gg
CCCCCCC(C)N(CC)C(=O)c1c(Cl)cccc1[Si](C)(C)C (stereo not shown) [Example 96, 2-Chloro-N-ethyl-N-(1-methylheptyl)-6-(trimethylsilyl)benzamide] | reduce the incidence of Gg
CC(CO)NC(=O)c1c(Cl)cccc1[Si](C)(C)C (stereo not shown) [Example 154, 2-Chloro-N-(2-hydroxy-1-methylethyl)-6-(trimethylsilyl)benzamide] | reduce the incidence of Gg
CCN(CC)C(=O)c1c(Cl)cccc1[Si](C)(C)c1ccccc1 [Example 67, N,N-Diethyl-2-chloro-6-(dimethylphenylsilyl)benzamide] | reduce the incidence of Gg
CCN(CC)C(=O)c1c(Cl)cccc1[Si](C)(C)CCl [Example 69, N,N-Diethyl-2-chloro-6-[(chloromethyl)dimethylsilyl]benzamide] | reduce the incidence of Gg
C[Si](C)(C)c1cccc(Cl)c1C(=O)NCc1ccc2c(c1)OCO2 [Example 144, N-(1,3-benzodioxol-5-ylmethyl)-2-chloro-6-(trimethylsilyl)benzamide] | reduce the incidence of Gg
CCN(CC)C(=O)c1c(F)cccc1[S+]([O-])C(C)(C)C (stereo not shown) [Example 195, N,N-Diethyl 2-[(1,1-dimethylethyl)sulfinyl]-6-fluorobenzamide] | reduce the incidence of Gg
